Test results taken from PMC7819943, “Rice protein-binding microarrays: a tool to detect cis-acting elements near promoter regions in rice”.
Some of the results follow.

Biological target: T1, OsSMF1 (Oryza sativa, UniProt Q6ZLB0 1-436)
T1 sequence: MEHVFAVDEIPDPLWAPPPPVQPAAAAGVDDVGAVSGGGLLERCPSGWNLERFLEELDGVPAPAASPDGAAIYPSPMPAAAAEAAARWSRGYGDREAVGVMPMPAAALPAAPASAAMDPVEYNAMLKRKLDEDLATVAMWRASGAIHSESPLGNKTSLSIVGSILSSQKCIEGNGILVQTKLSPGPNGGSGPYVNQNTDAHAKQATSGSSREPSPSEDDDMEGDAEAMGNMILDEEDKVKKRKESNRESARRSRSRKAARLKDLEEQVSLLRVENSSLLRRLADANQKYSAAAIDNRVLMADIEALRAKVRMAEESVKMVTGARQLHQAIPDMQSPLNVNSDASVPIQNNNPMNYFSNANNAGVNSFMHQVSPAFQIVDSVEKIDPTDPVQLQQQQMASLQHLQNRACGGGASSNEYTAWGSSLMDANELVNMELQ
Assay: protein-binding microarray (RPBM); PBS, 2% BSA, 51.3 ng/ul salmon testes DNA, 50 uM zinc acetate, 200 nM TF, 25 C, 1 h; high values mean tight binding
Details: protein: recombinant; tags: N-terminal polyhistidine and DsRed monomer fusion (pET32a); chain copies: 2; label: CyDye5-dUTP incorporated in the synthesized complementary strand; 3' TTTTT single-stranded linker to array surface; dsDNA, one strand shown
How it was run: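 An Axon 4000B scanner gave the binding signal as per-feature fluorescence intensity in arbitrary units. This followed washing of a custom Agilent array that had been incubated for 1 h at 25 °C with 200 nM protein in PBS, 2% BSA, salmon testes DNA and 50 µM zinc acetate. The proteins were transcription factors fused at the N-terminus to polyhistidine and DsRed, expressed in E. coli BL21-CodonPlus and purified on Ni–NTA.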

Row | Sequence | binding signal
1 | GATTTGGGCAGCTGAAGCTCTGCCGATTCCGGTTGGGAATCGGAGTCACCTAGTGCAG | 5150 fluorescence intensity (a.u.)
2 | CACAAGGGGAAGGGGAGGGCCTCCGCACTGCACATCTCATCGGAGTCACCTAGTGCAG | 3150 fluorescence intensity (a.u.)
3 | TGTGTACCAGCTGTGTATGACGCCATCGAATCAGTCTTCCCGGAGTCACCTAGTGCAG | 3280 fluorescence intensity (a.u.)
4 | GGCGGTATGGTGAACCCTGCGAGATCCTTATCCTGTCACTCGGAGTCACCTAGTGCAG | 23800 fluorescence intensity (a.u.)
5 | ACCAAATGACATGACTCACTTAGATCCTAATAGGACATCCCGGAGTCACCTAGTGCAG | 4400 fluorescence intensity (a.u.)
6 | GATCCGTCGCGTCGCCGTCGTCGCCACGCGTGTCACGACGCGGAGTCACCTAGTGCAG | 6470 fluorescence intensity (a.u.)
7 | CGCGACAAGCACAGGCACACGTGACTGAATTGGCATCCATCGGAGTCACCTAGTGCAG | 4050 fluorescence intensity (a.u.)
8 | TGTTTATGTTTATCTGATATGTACACGTTCTTATTTACATCGGAGTCACCTAGTGCAG | 3880 fluorescence intensity (a.u.)
9 | ACTAGCACACCGGTGCTGTCAGCTGATGGTCGATCGAGATCGGAGTCACCTAGTGCAG | 3780 fluorescence intensity (a.u.)
10 | ACCGCCTTTTCGCCTGTCTGTTTTATAACTCACCATTATACGGAGTCACCTAGTGCAG | 23200 fluorescence intensity (a.u.)
11 | AATTGACCCTTTCACTACCACATCATCAAAACCATCCATCCGGAGTCACCTAGTGCAG | 4510 fluorescence intensity (a.u.)
12 | AGGGAGTAGTTAAGTTGTTAAGCTAGTAAGAAAATACAGGCGGAGTCACCTAGTGCAG | 3610 fluorescence intensity (a.u.)
13 | CAGAACGTGTCACTGACGTGCGGGGCCAACCAAGCCCATGCGGAGTCACCTAGTGCAG | 38300 fluorescence intensity (a.u.)
14 | GAGCTGAGCGTCGCGTGCACCGAATCCCCGCACTGAACGCCGGAGTCACCTAGTGCAG | 27600 fluorescence intensity (a.u.)
15 | TCTTTGACAGAAGTACTTGCTCCTGTCATTTTCAGTGCTACGGAGTCACCTAGTGCAG | 3450 fluorescence intensity (a.u.)
16 | CAGCTACAGGACGGCAGTACCCAGTACACGCACGCGTACCCGGAGTCACCTAGTGCAG | 3640 fluorescence intensity (a.u.)
17 | CATATACACAGTTACACACATCATCTGGGATGCAACGGTACGGAGTCACCTAGTGCAG | 3230 fluorescence intensity (a.u.)
18 | CAATTATAATCACGTCAGGTATAGAGCGAGCGGTAGCAGACGGAGTCACCTAGTGCAG | 16200 fluorescence intensity (a.u.)
19 | CTCGTCGTCATCGTCCTCTTCTTCGTCCTCATCGTCGTCGCGGAGTCACCTAGTGCAG | 4590 fluorescence intensity (a.u.)
20 | GCTCACACAATGATGACGCCGAGTGCTGACTAGGGCTCCCCGGAGTCACCTAGTGCAG | 9010 fluorescence intensity (a.u.)
21 | CCTGATATTCAAAATGATAGGATGAATCAGCGTATAATTACGGAGTCACCTAGTGCAG | 3560 fluorescence intensity (a.u.)
22 | ATCTGTAGTTCTCTACTTAATAGAGTTGATCACTTAGGTTCGGAGTCACCTAGTGCAG | 3440 fluorescence intensity (a.u.)
23 | GTAAGCCACATGTCAACAAGGCACTGGGTGGCGTGCACCACGGAGTCACCTAGTGCAG | 3180 fluorescence intensity (a.u.)

2 entries from above, tab-delimited.
Row	Sequence	binding signal
4	GGCGGTATGGTGAACCCTGCGAGATCCTTATCCTGTCACTCGGAGTCACCTAGTGCAG	23800 fluorescence intensity (a.u.)
5	ACCAAATGACATGACTCACTTAGATCCTAATAGGACATCCCGGAGTCACCTAGTGCAG	4400 fluorescence intensity (a.u.)
